In paper PMC6134139:
No constants are given. Whether binding was seen depends on the method and setting. Binding seen in cells or lysates may run through a third protein. Some entries that bind do so weakly or less than the wild type. Sequences can lack the tags named with a protein.

Protein sequences, listed by entry. Tags and fused reporters are not part of them.
UniProt Q96GD4: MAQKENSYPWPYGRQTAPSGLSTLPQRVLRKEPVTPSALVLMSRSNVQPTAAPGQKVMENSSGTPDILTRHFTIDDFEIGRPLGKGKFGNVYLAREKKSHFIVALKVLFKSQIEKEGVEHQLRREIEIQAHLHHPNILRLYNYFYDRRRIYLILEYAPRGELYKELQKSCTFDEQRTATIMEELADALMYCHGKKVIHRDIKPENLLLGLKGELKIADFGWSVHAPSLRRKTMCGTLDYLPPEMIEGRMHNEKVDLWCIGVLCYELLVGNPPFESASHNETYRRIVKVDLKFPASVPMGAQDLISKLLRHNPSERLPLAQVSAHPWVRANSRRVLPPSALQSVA

Molecular target: T1, Flag-tagged RecQL4 Q253H (N-terminal sld2 domain mutation) (human) (UniProt O94761)
T1 sequence: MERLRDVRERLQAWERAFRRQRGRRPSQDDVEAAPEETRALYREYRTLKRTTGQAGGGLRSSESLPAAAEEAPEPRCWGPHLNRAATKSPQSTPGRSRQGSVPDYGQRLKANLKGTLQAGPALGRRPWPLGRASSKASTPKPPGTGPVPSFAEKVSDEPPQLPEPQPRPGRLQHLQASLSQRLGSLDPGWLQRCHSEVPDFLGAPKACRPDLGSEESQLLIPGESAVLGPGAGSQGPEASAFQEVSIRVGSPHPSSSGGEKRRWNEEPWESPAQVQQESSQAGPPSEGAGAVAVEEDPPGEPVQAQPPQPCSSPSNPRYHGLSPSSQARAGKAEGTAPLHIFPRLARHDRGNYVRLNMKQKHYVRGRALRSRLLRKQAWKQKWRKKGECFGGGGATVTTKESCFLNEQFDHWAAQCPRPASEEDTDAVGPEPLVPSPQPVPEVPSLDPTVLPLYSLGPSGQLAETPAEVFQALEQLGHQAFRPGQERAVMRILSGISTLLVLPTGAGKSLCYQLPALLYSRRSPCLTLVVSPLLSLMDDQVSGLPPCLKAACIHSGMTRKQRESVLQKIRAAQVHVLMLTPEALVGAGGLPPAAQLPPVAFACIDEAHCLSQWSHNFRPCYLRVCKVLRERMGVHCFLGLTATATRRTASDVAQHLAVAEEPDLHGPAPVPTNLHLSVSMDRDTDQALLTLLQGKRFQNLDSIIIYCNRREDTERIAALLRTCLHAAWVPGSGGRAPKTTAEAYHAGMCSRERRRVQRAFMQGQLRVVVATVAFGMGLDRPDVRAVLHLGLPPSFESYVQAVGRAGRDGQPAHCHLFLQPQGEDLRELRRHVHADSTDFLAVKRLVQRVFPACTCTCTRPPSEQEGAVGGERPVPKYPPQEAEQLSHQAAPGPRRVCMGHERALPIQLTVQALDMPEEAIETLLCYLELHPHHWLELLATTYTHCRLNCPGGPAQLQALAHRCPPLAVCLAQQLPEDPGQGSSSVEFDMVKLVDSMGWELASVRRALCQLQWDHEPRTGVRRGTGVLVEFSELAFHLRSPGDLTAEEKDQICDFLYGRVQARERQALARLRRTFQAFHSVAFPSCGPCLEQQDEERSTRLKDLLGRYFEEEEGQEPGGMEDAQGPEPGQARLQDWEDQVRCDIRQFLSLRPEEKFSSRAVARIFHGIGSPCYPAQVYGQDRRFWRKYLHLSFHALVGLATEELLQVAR
Test: co-IP; anti-Flag M2 affinity gel; whole-cell lysates of transfected 293T cells, 1.0 mg protein in lysis buffer (50 mM Tris-HCl pH 7.5, 150 mM NaCl, 1% NP-40, 5 mM EDTA, 5 mM EGTA); 4 °C, 3-4 h; Western blot

endogenous (native) Aurora B kinase (AURKB) of 293T cells (from UniProt Q96GD4 1-344)
binding: binds
